Results reported in patent publication US6660841.
No constants are given. Whether binding was seen depends on the method and setting. In cells and extracts the contact can be indirect. Some results given as binding are weak or reduced against the parent protein; the word gives no strength. For some of these results: Where a sequence is shown, tags or fusion partners need not be part of it.

Chains of the proteins cited; added tags and fusions are not shown. Lines headed by an entry give the natural chain unless they say otherwise; changes in a name come on top.
UniProt P04386: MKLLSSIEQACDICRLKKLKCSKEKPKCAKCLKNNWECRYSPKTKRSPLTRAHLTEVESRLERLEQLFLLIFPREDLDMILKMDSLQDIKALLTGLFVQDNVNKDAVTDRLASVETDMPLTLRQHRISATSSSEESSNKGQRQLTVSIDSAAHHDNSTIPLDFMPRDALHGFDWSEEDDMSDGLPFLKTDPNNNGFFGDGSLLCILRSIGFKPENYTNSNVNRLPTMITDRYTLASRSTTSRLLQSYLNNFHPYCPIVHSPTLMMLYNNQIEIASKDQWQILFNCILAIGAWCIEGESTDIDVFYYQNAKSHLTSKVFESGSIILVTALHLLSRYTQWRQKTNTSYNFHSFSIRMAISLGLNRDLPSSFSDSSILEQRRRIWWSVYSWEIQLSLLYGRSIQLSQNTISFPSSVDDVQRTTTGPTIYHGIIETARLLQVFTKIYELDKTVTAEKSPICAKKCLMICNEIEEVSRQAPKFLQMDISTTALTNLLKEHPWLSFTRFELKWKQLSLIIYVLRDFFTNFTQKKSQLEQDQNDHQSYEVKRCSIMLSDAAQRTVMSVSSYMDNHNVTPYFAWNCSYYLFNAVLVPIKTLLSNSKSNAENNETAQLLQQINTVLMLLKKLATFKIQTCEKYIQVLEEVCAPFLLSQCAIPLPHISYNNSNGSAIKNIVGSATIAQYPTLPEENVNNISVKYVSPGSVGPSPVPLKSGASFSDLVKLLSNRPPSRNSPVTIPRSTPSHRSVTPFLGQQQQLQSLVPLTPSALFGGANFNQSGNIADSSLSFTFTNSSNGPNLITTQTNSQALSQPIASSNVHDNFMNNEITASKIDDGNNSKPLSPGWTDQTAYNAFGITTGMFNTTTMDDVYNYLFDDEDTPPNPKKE

B1: ACT (Activator of CREM in Testis) (protein)
chain: MTSSQFDCQYCTSSLIGKKYVLKDDNLYCISCYDRIFSNYCEQCKEPIESDSKDLCYKNRHWHEGCFRCNKCHHSLVEKPFVAKDDRLLCTDCYSNECSSKCFHCKRTIMPGSRKMEFKGNYWHETCFVCEHCRQPIGTKPLISKESGNYCVPCFEKEFAHYCNFCKKVITSGGITFRDQIWHKECFLCSGCRKELYEEAFMSKDDFPFCLDCYNHLYAKKCAACTKPITGLRGAKFICFQDRQWHSECFNCGKCSVSLVGEGFLTHNMEILCRKCGSGADTDA
B2: Myc-tagged ACT (protein, not shown: small tags and cut ends)
chain: B1 chain

Assays:
[1] = target: T1, native CREM proteins from testis extract (mouse) (UniProt P27699); experiment: co-immunoprecipitation from mouse testis extract with the anti-ACT antibody
T1 sequence (looked up): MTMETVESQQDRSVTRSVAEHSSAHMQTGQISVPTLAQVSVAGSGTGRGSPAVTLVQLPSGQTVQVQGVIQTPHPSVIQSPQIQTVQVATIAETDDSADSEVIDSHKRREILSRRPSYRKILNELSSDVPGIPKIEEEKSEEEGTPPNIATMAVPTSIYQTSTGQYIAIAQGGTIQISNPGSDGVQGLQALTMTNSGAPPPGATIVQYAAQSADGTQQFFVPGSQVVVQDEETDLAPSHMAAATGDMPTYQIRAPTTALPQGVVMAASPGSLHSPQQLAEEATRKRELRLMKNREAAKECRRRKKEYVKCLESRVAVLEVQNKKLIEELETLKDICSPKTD

[2] = target: G4CREM (UniProt P04386); experiment: co-immunoprecipitation from COS cells with Gal4-DBD antibodies, western with CREM and Myc antibodies (wild-type G4CREM as reference)
[3] = target: T2, CREM (expression vector, COS cells) (UniProt P27699); experiment: co-immunoprecipitation with CREM and Myc antibodies, western with the reciprocal antibody
T2 sequence (looked up): T1 sequence (looked up)

[4] = target: T2, CREM (expression vector, COS cells); experiment: co-immunoprecipitation from co-transfected cells with anti-CREM antibodies and, conversely, with an anti-Myc antibody

| Binder | binding [1] | binding [2] | binding [3] | binding [4] |
| --- | --- | --- | --- | --- |
| B1 | binds | – | – | – |
| B2 | – | binds | binds | binds |
